The source of these data is the supplement of paper PMC4635364.

Structures can show the parent of a compound that is named as a salt. This is one part of the list. Single values are uncertain here, since repeats match poorly.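 ReNCell VM, a human fetal ventral-midbrain neural progenitor line, was differentiated without mitogens. Blinded raters scored images stained for doublecortin (early neurons) or tyrosine hydroxylase (dopaminergic neurons) against untreated wells (0 = no change). Scores were averaged across repeats and both raters, and compounds averaging 2 or more were selected as hits for retesting.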

For the first test, the system named is ReNCell VM. In words: neuronal differentiation score (DCX+ cell fraction vs untreated, manual image score) (score (-3 to 3)); higher = more neuronal differentiation. The settings on record: library: LOPAC; 2 uM; 2 weeks.
Take `Nc1nc(SCc2ccc([N+](=O)[O-])cc2)c2ncn([C@@H]3O[C@H](CO)[C@H](O)C3O)c2n1` (stereo partly drawn) [S-(4-Nitrobenzyl)-6-thioguanosine]: the neuronal differentiation score was inactive: 0. On the same count and under the same terms, the same measure for `C[C@]12CCC(=O)C=C1CC[C@@H]1[C@@H]2[C@@H](O)C[C@@]2(C)[C@H]1CC[C@]2(O)C(=O)COC(=O)CCC(=O)O` [Hydrocortisone 21-hemisuccinate sodium]: inactive: 0; for `Cc1cccc(C2CN(C)CCc3c2cc(O)c(O)c3Cl)c1` (stereo not given): inactive: 0. Same read-out and setting: under `CCN(c1nc(N)c(C(=O)NC(=N)N)nc1Cl)C(C)C` [5-(N-Ethyl-N-isopropyl)amiloride] stands active: 2.

The test is the same for the next values; noted with them: library: Prestwick; 2 uM; 2 weeks.
In the case of `CCOC(=O)c1ccc(N)cc1` [Benzocaine], the neuronal differentiation score is inactive: 0. Still for that read-out and setting: under `COc1ncnc(NS(=O)(=O)c2ccc(N)cc2)c1OC` [Sulfadoxine] stands inactive: 0; under `CC1(C)O[C@@H]2C[C@H]3[C@@H]4C[C@H](F)C5=CC(=O)C=C[C@]5(C)[C@@]4(F)[C@@H](O)C[C@]3(C)[C@]2(C(=O)CO)O1` [Fluocinolone acetonide], inactive: 0. Same read-out and setting: the same measure for `CO/N=C(\C(=O)N[C@@H]1C(=O)N2C(C(=O)O)=C(COC(C)=O)CS[C@H]12)c1csc(N)n1` [Cefotaxime sodium salt]: inactive: 1; for `Cc1c(N(C)CS(=O)(=O)O)c(=O)n(-c2ccccc2)n1C` [Dipyrone]: inactive: 0; for `CC(=O)[C@H]1CC[C@H]2[C@@H]3CC=C4C[C@@H](O)CC[C@]4(C)[C@H]3CC[C@]12C` [Pregnenolone]: inactive: 0.

Staying with this test, now noted: library: Spectrum; 2 uM; 2 weeks.
Turning to `Nc1ccc(S(=O)(=O)Nc2nccs2)cc1`, the neuronal differentiation score is inactive: 0. For the molecule `CC(C)c1c(C(=O)Nc2ccccc2)c(-c2ccccc2)c(-c2ccc(F)cc2)n1CC[C@@H](O)C[C@@H](O)CC(=O)O`, the neuronal differentiation score was inactive: 0. Same read-out and setting: under `O=NN(CCCl)C(=O)NCCCl` stands inactive: 0; under `NC(CO)C(=O)NNCc1ccc(O)c(O)c1O` (stereo not given), inactive: 0. On the same count and under the same terms, under `COc1ccc2c(c1)c(CC(=O)O)c(C)n2C(=O)c1ccc(Cl)cc1` stands inactive: 0; under `CO[C@@]1(NC(=O)C2SC(=C(C(N)=O)C(=O)O)S2)C(=O)N2C(C(=O)O)=C(CSc3nnnn3C)CS[C@@H]21` (stereo not given in full), inactive: 0; under `CCN1CCN(c2cc3c(cc2F)c(=O)c(C(=O)O)cn3C2CC2)CC1`, inactive: 0. Still for that read-out and setting: the same measure for `[O-][n+]1cccc(CO)c1`: inactive: 0. Consider `NCC[C@H](O)C(=O)N[C@@H]1C[C@H](N)[C@@H](O[C@H]2O[C@H](CN)[C@@H](O)[C@H](O)[C@H]2O)[C@H](O)[C@H]1O[C@H]1O[C@H](CO)[C@@H](O)[C@H](N)[C@H]1O`, for which the neuronal differentiation score is inactive: 0. Still for that read-out and setting: the same measure for `O=c1c(O)c(-c2ccc(O)c(O)c2)oc2cc(O)cc(O)c12`: inactive: 0; for `O=C1N=C(O)NC1(c1ccccc1)c1ccccc1`: inactive: 0; for `Cc1c(S(=O)(=O)O)oc2c1C(=O)C(=O)c1c-2ccc2c1CCCC2(C)C`: inactive: 0. Same read-out and setting: under `CC[C@H](C)C(=O)O[C@H]1C[C@H](O)C=C2C=C[C@H](C)[C@H](CC[C@@H](O)C[C@@H](O)CC(=O)O)[C@H]21` stands inactive: 0; under `NCCCC(O)(P(=O)(O)O)P(=O)(O)O`, inactive: 1; under `CO[C@@]1(NC(=O)CSCC#N)C(=O)N2C(C(=O)O)=C(CSc3nnnn3C)CS[C@@H]21`, inactive: 0. On the same count and under the same terms, under `CC(C)[N+]1(C)[C@@H]2CC[C@H]1C[C@@H](OC(=O)C(CO)c1ccccc1)C2` (stereo not given in full) stands inactive: 0; under `COc1ccc2c(c1)OCC(Cc1ccc(O)c(OC)c1)C2=O` (stereo not given), inactive: 0. `CCC1NC(=O)c2cc(S(N)(=O)=O)c(Cl)cc2N1` (stereo not given): the neuronal differentiation score was inactive: 0. Same read-out and setting: under `Cc1c(OCC(F)(F)F)ccnc1C[S@@+]([O-])c1nc2ccccc2[nH]1` stands inactive: 0.

Staying with this test, now noted: library: Tocriscreen; 2 uM; 2 weeks.
Regarding `CCc1nn(CCCN2CCN(c3cccc(Cl)c3)CC2)c(=O)n1CCOc1ccccc1` [Nefazodone hydrochloride], the neuronal differentiation score is inactive: 0. Same read-out and setting: under `C[C@H](NC(=O)/C(C#N)=C/c1ccc(O)c(O)c1)c1ccccc1` [Tyrphostin B44, (+) enantiomer] stands inactive: 0; under `COc1ccc(Br)cc1S(=O)(=O)NC(=O)/C=C/c1ccccc1Cc1ccc2ccccc2c1`, inactive: 0. Turning to `Cc1sc(N)c(C(=O)c2cccc(C(F)(F)F)c2)c1C`, the neuronal differentiation score is inactive: 1. On to `Cc1cc2nc3c(=O)[nH]c(=O)nc-3n(C)c2cc1C=O`, for which the neuronal differentiation score was inactive: 0. On to `N[C@H](C(=O)O)c1ccc(O)c(C(=O)O)c1` [(S)-3-Carboxy-4-hydroxyphenylglycine], for which the neuronal differentiation score is inactive: 0. On the same count and under the same terms, the same measure for `N#C/C(=C\c1ccc(O)c(O)c1)C(=O)NCc1ccccc1`: inactive: 0.

The test system of another test is ReNCell VM. In words: dopaminergic neuron differentiation score (TH+ cell fraction vs untreated, manual image score) (score (0 to 3)); higher = more TH+ dopaminergic neuron differentiation. Particulars: library: LOPAC; 2 uM; 4 weeks; BDNF 10 ng/ml + GDNF 10 ng/ml.
As for `Nc1nc(SCc2ccc([N+](=O)[O-])cc2)c2ncn([C@@H]3O[C@H](CO)[C@H](O)C3O)c2n1` (stereo partly drawn) [S-(4-Nitrobenzyl)-6-thioguanosine], the “dopaminergic neuron differentiation score” value was inactive: 0.

Regarding `C[C@]12CCC(=O)C=C1CC[C@@H]1[C@@H]2[C@@H](O)C[C@@]2(C)[C@H]1CC[C@]2(O)C(=O)COC(=O)CCC(=O)O` [Hydrocortisone 21-hemisuccinate sodium], the “dopaminergic neuron differentiation score” value is inactive: 0.

Turning to `Cc1cccc(C2CN(C)CCc3c2cc(O)c(O)c3Cl)c1` (stereo not given), the “dopaminergic neuron differentiation score” value is inactive: 0. Same read-out and setting: the same measure for `CCN(c1nc(N)c(C(=O)NC(=N)N)nc1Cl)C(C)C` [5-(N-Ethyl-N-isopropyl)amiloride]: inactive: 0.
